In PMC10199128:
No constants are given. Whether binding was seen depends on the method and setting. A result given as binding can be weak or reduced; the word gives no strength.

B1: ANAC016 (NTL3) (protein, UniProt A4FVP6 1-564)
chain: MVDSSRDSCFKAGKFSAPGFRFHPTDEELVVYYLKRKICCKKLRVNAIGVVDVYKVDPSELPGLSMLKTGDRQWFFFTPRNRKYPNAARSSRGTATGYWKATGKDRVIEYNSRSVGLKKTLVFYRGRAPNGERTDWVMHEYTMDEEELGRCKNAKEYYALYKLYKKSGAGPKNGEQYGAPFQEEEWVDSDSEDADSVAVPDYPVVRYENGPCVDDTKFCNPVKLQLEDIEKLLNEIPDAPGVNQRQFDEFVGVPQGNSAEVIQSTLLNNSSGEYIDPRTNGMFLPNGQLYNRDSSFQSHLNSFEATSGMAPLLDNEKEEYIEMNDLLIPELGASSTEKSTEFLNHGEFGDVNEYDQLFNDISVFQGTSTDLSCLSNFTNNTSGQRQQLLYEQFQYQTPENQLNNYMHPSTTLNQFTDNMWFKDDQAALYVQPPQSSSGAFTSQSTGVMPESMNPTMSVNPQYKEGQNGGGTRSQFSSALWELLESIPSTPASACEGPLNQTFVRMSSFSRIRFNGTSVTSRKVTVAKKRISNRGFLLLSIMGALCAIFWVFKATVGVMGRPLLS
B2: ANAC017 (NTL7) (protein, UniProt Q9XIC5 1-557)
chain: MADSSPDSCFKGGKFSAPGFRFHPTDEELVMYYLKRKICRKRLRVNVIGVVDVYKMDPEELPGQSMLKTGDRQWFYFTPRSRKYPNAARSNRGTENGYWKATGKDRVIEYNSRSVGLKKTLVFYRGRAPSGERTDWVMHEYTMDEDELGRCKNPQEYYALYKLFKKSGAGPKNGEQYGAPFQEEEWVDDDNEDVNAIAVAVPEQPVVRYEDARRVDERRLFNPVILQLEDIDELLNGIPNAPGVPQRCIPQVNSEEELQSTLVNNSAREFLPNGQQYNRPSSFDSLETAEVTSAPLVFEKEDFIEMDDLLLIPEFGASSTEKAAQFSNHGEFDDFNEFDQLFHDVSMSLDMEPIDQGTSANLSSLSDSANYTSDQKQQLLYQQFQDQTPENQLNNIMDPSTTLNQITSDIWFEDDQAILFDQQQSFSGAFASPSSGVMPDSTNPTMSVNAQGHEIQNGGGTTSQFSSALWALMDSIPSTPASACEGPLNRTFVRMSSFSRMRFNGKANGTPVSTTIAKKGIRNRGFLLLSIVGALCAIFWVLVATVRVSGRSLLLKD
B3: ANAC005 (protein, UniProt O81914 1-362)
chain: MANPVGFRFRPTDGEIVDIYLRPKNLESNTSHVDEVISTVDICSFDPWDLPSHSRMKTRDQVWYFFGRKENKYGKGDRQIRKTKSGFWKKTGVTMDIMRKTGDREKIGEKRVLVFKNHGGSKSDWAMHEYHATFSSPNQIMTYTLCKVKFKGERREFSVATGSGIKHTHSLIPPTNNSGVLSVETEGSLFHSQESQNPSQFSGFLDVDALDRDFCNILSDDFKGFFNDDDEQSKIVSMQDDRNNHTPQKPLTGVFSDHSTDGSDSDPISATTISIQTLSTCPSFGSSNPLYQITDLQESPNSIKLVSLAQEVSKTPGTGIDNDAQGTEIGEHKLGQETIKNKRAGFFHRMIQKFVKKIHLRT

Target: Plasmopara halstedii RXLR effector PhRXLR-C13 (Plasmopara halstedii)
Assay: two-hybrid

Binder | binding
B1 | binds
B2 | binds
B3 | no binding
